# Data as given in patent US7385029 (dated 2008).
# Test: general procedure: solution-phase peptide synthesis; diethyl cyanophosphate and triethylamine
substance,measurement,setting,value
"N^2-(N,N-dimethyl-L-valyl)-N-[(1S,2R)-2-methoxy-4-[(2S)-2-[(1R,2R)-1-methoxy-2-methyl-3-oxo-3-[(2-phenylethyl)amino]propyl]-1-pyrrolidinyl]-1-[(S)-1-methylpropyl]-4-oxobutyl]-N-methyl-L-valinamide",final HPLC purity,coupling step,99.2%
same,final HPLC purity,late stage modification step,99.3%
